Measurements: article PMC6726247

The chains behind the UniProt entries cited, without tags or fusion partners.
UniProt Q9CWH6: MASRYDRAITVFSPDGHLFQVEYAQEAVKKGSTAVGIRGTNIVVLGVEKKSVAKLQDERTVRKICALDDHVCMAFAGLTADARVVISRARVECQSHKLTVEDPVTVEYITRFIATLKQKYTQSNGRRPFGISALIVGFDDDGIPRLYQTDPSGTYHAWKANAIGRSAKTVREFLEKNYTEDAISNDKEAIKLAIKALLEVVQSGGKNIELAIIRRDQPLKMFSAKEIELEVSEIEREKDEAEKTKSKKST
UniProt Q99MV7: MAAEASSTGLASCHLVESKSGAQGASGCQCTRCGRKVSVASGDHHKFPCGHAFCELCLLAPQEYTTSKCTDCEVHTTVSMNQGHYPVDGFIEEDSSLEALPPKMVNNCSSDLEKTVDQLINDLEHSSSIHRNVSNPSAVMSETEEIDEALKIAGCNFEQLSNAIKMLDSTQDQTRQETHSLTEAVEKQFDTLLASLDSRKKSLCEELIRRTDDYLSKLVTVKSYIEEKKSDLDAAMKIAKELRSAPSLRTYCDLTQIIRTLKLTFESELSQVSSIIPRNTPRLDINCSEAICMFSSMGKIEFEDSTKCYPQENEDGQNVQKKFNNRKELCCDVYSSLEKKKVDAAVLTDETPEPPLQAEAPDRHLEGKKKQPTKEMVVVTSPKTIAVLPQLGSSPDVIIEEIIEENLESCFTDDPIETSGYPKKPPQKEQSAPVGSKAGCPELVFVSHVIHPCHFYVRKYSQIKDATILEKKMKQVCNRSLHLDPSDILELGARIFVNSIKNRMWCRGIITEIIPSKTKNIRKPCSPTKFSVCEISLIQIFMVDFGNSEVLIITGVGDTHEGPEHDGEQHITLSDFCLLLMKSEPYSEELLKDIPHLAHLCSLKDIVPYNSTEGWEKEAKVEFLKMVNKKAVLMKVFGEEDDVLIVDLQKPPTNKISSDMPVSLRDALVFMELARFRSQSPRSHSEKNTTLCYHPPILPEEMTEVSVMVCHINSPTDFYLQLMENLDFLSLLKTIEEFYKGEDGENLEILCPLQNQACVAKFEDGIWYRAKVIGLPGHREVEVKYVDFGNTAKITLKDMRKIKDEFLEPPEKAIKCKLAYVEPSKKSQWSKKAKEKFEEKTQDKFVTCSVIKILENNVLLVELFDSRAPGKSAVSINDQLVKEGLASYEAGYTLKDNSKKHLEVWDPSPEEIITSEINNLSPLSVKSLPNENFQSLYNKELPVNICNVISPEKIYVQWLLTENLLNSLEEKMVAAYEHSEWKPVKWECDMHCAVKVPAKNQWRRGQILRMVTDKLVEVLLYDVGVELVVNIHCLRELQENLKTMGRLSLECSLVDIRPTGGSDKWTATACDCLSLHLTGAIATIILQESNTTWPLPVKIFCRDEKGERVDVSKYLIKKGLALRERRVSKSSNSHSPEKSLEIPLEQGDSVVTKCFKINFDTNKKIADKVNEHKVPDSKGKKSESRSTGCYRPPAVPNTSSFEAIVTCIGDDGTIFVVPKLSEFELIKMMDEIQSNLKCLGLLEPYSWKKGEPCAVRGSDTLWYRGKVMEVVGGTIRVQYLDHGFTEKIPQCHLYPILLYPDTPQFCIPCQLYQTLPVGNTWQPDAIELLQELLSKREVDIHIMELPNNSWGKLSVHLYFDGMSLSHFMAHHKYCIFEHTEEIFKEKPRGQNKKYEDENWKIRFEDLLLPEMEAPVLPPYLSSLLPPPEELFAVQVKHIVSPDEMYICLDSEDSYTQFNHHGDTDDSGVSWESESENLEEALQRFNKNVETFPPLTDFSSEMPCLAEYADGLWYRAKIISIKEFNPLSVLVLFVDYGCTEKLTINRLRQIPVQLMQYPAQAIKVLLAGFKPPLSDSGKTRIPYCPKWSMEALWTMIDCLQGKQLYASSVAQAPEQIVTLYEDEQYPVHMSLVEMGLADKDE
UniProt P11440: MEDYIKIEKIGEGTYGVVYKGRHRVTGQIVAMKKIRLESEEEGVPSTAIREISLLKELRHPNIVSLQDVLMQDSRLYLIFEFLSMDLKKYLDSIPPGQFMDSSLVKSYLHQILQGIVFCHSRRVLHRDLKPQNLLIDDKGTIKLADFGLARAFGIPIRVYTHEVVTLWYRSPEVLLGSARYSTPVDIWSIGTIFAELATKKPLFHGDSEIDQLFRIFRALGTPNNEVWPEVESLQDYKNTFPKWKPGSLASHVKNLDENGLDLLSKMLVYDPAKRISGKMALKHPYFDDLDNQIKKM
UniProt Q6ZQ93: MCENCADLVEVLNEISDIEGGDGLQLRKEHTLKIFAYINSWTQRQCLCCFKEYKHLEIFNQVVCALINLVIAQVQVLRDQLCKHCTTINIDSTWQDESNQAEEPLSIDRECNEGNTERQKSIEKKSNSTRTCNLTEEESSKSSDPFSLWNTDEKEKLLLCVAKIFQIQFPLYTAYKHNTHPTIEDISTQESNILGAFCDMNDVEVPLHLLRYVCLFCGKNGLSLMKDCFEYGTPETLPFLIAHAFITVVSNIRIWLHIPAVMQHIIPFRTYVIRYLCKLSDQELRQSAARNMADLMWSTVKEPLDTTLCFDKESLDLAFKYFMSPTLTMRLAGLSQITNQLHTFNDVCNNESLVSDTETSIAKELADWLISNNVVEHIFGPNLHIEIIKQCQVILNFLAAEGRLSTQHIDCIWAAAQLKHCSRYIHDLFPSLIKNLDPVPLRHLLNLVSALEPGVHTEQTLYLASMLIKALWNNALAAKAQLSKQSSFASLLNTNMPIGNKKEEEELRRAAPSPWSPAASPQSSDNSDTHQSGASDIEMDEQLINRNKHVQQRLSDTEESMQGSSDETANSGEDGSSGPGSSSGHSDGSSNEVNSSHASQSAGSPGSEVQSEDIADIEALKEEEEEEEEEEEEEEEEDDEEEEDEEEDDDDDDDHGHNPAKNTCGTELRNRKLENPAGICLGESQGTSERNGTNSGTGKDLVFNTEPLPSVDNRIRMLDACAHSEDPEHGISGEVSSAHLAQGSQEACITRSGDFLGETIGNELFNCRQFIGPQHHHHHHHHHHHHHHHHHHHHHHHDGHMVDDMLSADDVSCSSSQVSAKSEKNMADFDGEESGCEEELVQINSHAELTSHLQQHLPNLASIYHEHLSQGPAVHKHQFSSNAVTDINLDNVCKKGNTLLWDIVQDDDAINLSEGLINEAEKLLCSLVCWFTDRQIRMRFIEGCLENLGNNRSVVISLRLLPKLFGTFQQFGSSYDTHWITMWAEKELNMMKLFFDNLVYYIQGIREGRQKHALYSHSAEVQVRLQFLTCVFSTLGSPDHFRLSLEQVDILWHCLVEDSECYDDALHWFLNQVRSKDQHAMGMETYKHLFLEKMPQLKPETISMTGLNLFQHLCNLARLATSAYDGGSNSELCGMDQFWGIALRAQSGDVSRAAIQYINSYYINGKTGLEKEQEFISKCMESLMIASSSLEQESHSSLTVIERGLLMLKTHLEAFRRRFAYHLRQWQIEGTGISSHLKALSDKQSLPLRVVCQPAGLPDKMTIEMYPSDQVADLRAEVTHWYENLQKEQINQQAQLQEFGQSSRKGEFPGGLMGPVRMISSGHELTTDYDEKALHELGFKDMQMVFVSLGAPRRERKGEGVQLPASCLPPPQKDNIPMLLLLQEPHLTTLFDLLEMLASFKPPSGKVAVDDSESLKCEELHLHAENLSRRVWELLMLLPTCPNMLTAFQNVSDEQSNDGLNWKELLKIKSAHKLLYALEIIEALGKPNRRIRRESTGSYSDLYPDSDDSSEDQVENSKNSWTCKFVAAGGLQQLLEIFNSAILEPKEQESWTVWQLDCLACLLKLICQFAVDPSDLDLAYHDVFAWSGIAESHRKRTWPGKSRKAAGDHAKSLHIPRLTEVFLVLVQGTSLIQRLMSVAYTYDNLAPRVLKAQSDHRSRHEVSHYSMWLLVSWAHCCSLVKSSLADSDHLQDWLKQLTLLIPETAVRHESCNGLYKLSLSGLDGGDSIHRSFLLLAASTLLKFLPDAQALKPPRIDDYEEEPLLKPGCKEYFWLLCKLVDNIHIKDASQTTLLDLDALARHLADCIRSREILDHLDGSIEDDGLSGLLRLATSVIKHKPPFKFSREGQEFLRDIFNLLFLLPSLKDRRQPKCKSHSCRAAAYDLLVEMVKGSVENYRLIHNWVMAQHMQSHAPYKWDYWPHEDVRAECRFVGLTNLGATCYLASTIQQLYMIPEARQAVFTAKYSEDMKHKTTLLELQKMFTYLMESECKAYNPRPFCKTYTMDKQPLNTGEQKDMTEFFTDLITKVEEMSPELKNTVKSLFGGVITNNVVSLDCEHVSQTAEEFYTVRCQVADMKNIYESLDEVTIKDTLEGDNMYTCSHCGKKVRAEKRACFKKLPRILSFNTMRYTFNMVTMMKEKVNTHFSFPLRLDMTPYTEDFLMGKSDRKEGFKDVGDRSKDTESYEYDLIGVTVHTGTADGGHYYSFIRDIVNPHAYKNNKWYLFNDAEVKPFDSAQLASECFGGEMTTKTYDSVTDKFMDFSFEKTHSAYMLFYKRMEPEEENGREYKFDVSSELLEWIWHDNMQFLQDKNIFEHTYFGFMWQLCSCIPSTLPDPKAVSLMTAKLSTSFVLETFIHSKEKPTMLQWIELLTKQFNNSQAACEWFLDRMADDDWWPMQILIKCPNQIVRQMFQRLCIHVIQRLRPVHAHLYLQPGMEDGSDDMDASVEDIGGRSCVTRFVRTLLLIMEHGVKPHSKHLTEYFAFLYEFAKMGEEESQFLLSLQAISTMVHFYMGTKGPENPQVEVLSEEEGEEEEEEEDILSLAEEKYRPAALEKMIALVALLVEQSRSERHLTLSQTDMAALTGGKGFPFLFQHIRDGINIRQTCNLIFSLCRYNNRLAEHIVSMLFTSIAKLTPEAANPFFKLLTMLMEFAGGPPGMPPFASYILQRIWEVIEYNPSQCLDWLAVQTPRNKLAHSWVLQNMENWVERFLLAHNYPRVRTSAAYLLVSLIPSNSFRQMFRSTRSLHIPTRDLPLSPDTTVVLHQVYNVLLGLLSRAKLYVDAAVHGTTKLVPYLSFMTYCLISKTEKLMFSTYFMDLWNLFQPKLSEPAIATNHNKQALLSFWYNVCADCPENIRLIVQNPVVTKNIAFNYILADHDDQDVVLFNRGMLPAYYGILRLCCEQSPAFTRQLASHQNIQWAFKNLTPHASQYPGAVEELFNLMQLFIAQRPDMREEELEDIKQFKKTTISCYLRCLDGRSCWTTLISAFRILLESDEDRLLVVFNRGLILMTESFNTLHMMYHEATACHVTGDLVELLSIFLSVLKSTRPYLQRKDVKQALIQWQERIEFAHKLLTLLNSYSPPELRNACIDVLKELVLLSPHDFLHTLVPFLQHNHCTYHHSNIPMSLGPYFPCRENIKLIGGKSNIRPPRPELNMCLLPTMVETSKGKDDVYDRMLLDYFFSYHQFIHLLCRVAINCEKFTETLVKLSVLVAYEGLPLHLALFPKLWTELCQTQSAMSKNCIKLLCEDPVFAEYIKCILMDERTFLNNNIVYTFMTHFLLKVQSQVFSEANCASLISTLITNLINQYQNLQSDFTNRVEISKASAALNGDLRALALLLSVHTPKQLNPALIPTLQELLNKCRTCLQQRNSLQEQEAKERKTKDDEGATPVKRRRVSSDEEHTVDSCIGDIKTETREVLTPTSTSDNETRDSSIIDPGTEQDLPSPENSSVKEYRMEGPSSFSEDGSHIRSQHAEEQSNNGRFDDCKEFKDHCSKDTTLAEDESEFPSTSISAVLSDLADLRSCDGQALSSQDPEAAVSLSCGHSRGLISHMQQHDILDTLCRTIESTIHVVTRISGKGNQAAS
UniProt Q61390: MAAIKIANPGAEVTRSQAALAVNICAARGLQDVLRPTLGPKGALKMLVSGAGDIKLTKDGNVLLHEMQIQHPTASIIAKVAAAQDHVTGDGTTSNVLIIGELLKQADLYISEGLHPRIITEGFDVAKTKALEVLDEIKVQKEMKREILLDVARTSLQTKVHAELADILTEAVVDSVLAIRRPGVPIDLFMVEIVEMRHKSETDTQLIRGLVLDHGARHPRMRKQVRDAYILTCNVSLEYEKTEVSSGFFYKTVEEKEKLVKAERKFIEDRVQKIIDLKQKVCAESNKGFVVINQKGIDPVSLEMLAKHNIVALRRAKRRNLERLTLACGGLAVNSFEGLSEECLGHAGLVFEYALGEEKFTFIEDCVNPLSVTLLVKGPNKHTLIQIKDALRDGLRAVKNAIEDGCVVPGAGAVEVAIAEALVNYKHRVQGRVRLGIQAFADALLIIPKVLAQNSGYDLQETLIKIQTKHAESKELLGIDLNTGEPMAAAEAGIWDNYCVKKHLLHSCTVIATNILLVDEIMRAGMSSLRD

B1: USP47 (protein, UniProt Q8BY87 1-1376)
chain: MVPGEENQLVPKEDVFWRCRQNIFDEMKKKFLQIENAAEEPRVLCIIQDTTNSKTVSERITLNLPASTPVRKLFEDVANKVGYINGTFDLTRENGVTTADMAPLDHTSDKSLLDANFEPGKKNFLHLTDKDGEPPQMLLEDSNNVDDSVHDRFIGPLPREGSVASTNDYVSQNYSYSSILNKSETGYVGLVNQAMTCYLNSLLQTLFMTPEFRNALYKWEFEDSEEDPVTSIPYQLQRLFVLLQTSKKRAIETTDVTRSFGWDSSEAWQQHDVQELCRVMFDALEQKWKQTEQADLINELYQGKLKDYVRCLECGYEGWRIDTYLDIPLVIRPYGSSQAFASVEEALHAFIQPEILDGPNQYFCERCKKKCDARKGLRFLHFPYLLTLQLKRFDFDYTTMHRIKLNDRMSFPEELDMSTFIDIEDEKSPQTESCTDSGAENEGSCHSDQMSNDFSTDDAVDEGICLESSSGSEKISKPGLEKNSLMYELFSVMVHSGSAAGGHYYACIKSFSDDQWYSFNDQHVSRITQEDIKKTHGGSSGSRGYYSSAFASSTNAYMLIYRLKDPTRNAKFLEVDEYPEHIKNLVQKERELEEQEKRQREIERNTCKIKLFCLHPVKQVMMENKLEVHKDKTLKEAVEMAYKMMDLEDVIPLDCCRLVKYDEFHDYLERSYEGEEDTPMGLLLGGVKSTYMFDLLLETRKPDQIFQSYKPGEVMVKVHVVDLKAETVAAPVTVRAYLNQTVTEFKQLISKATHLPADSMRIVLERCYNDLRLLSMPSKTLKAEGFFRSNKVFVESSETVDHQAAFTDSHLWKLLDRHANTIRLFVLLPEQSPGSYSKRTAYQKAGGDSGNVDDDCERVKGPAGNLKSVDAILEESTEKLKSLSLQQQQQDGDNGDSSKSTETSDFENIESPLNERGSSTSVDNRELEQHIQTSDPENFQSEERSDSDVNNDRSTSSVDSDILSSSHSSDTLCNADSAQIPLANGLDSHSITSSRRTKANEGKKETWDTAEEDSGTDSEYDESGKSRGDMQYMYFKADPYTADEGSGEGHKWLMVHVDKRITLAAFKQHLEPFVGVLSSHFKVFRVYTSNQEFETVRLNETLSSFSDDNKITIRLGRALKKGEYRVKVCQLLVNEQEPCKFLLDAVFAKGMTVRQSKEELIPQLREQCGLDLSIDRFRLRKKTWKNPGTVFLDYHIYEEDINISSNWEVFLEVLDGVEKMKSMSQLAILTRRWRPAEMKLDPFQELVLESNSVDELREKLSEISGIPLEDIEFAKGRGTFPCDISVLDIHQDLDWNPKVSTLNVWPLYICDDGAVIFYRDRTEEVMELTDEQRNELMKKESSRLQKTGHRVTYSPRKEKALKIYLDGAPNKDVAQD
B2: DAZL (deleted in azoospermia) (protein, UniProt Q64368 1-298)
chain: MSATTSEAPNSAVSREASTQSSSATTSQGYVLPEGKIMPNTVFVGGIDVRMDETEIRSFFARYGSVKEVKIITDRTGVSKGYGFVSFYNDVDVQKIVESQINFHGKKLKLGPAIRKQNLCTYHVQPRPLIFNPPPPPQFQSVWSSPNAETYMQPPTMMNPITQYVQAYPPYPSSPVQVITGYQLPVYNYQMPPQWPAGEQRSYVIPPAYTTVNYHCSEVDPGADILPNECSVHDAAPASGNGPQKKSVDRSIQTVVSCLFNPENRLRNSLVTQDDYFKDKRVHHFRRSRAVLKSDHLC
B3: SPAG1 (Sperm-associated antigen 1) (protein, UniProt Q80ZX8 1-901)
chain: MTAKAKDCPSLWGFGTTKTFKIPIEHLDFKYIENCSDVKHLEKILYVLRSGEEGYYPELTEFCEKCLTNLAPKSRALRKDKPAETASSFSAEEWEKIDSDLKSWVSEIKREENTCHFHDPENHPGVEDPLPPVRGSTCCPHSGKETYSKSKTAKKRIPRDYAEWDKFDVEKECSKIDEDYKEKTVINNKAHLSKIETKIETAGLTEKEKSFLANREKGKGNEAFYSGDYEEAVMYYTRSLSALPTAIAYNNRAQAEIKLQRWSSALEDCEKALELDPGNVKALLRRATTYKHQNKLQEAVDDLRKVLQVEPDNDLAKKTLSEVERDLKNSEPVSELQTKGKRMVIEEVENSGDEGGKGSADEREDGGSDEAAMGNIQKKLMVRRSEGGRRSRRGRTPGPRAEQQGGLRETATASTGDSHYPEEPRAADNPSGLKRRGNELFRGGQFAEAAAQYSVAIAQLEPTGSANADELSILYSNRAACYLKEGNCRDCIQDCNRALELHPFSVKPLLRRAMAYETLEQYRNAYVDYKTVLQIDCGIQLASDSANRIARILTELDGSKWRERLPPIPAVPTSEPLRVWLPAAETPDQDPCPNNCMPSITDEKMFQALKEEGNQLVKDKNYKDAISKYNECLKINSKACAIYTNRALCYLKLGQFEEAKLDCEQALQIDGENVKASHRLALAQKGLENCRESGVDPSQVLLSPDSSEAARHLDTKNDTAPPSKGRERRRIQVQEVDGSSDEEPERPAEASATSAPARDGVEDGGSAEPAEKLDVSKPTNAYEFGQVLSTISARKDEEACAHLLAITAPKDLPLLLSNKLEGDTFLLLIQSLKSHLVAKDPSLVYEHLLYLSKAERFKTMLTLINKGQKEQMAQLFDGLSDTQSDGLTAEDVQALRRQYEL
B4: SPATA5 (Spermatogenesis-associated protein 5) (protein, UniProt Q3UMC0 1-893)
chain: MSSKKNRKRQKEGAEGASPSLSAAPSRSGTSTPFAQPSPAAPGMLVVTNFLEKVDGKVPKTFQNSLVHLGLNTMKSANICIGRPVLLTSLDGKQEVYTAWPVAGFPGGKVGLSEMAQKNVGVRAGETIQVQPLLGAVLQAQEMDLALSDKDKEINEEELTGCILRKLDGKIVLPGNFLYCTFYGRLCKLQVLQVKGTDGTTLGKLQSASGTDAQGMASEHSSMESSDVDLSFQLSQLDLKEPQSPSSQSTPCKPTNDRTVNKAGEVLLDVTQSPRDGSGLGLEESTGLKCSFDSSKEGNTQPVSEEKLLKPASAGTKSNTDTFYFISSTTRINLRKICTNSKEQDSQFKVTYDMIGGLNSQLKAIREIIELPLKQPELFKSYGIPAPRGLLLYGPPGTGKTMIARAVANEVGAYVSVINGPEIISKFYGETEARLRQIFAEATLRHPSIIFIDELDALCPKREGAQSEVEKRVVASLLTLMDGIGSEGSEGRVLVLGATNRPQALDAALRRPGRFDKEIEIGIPNAQDRLDILQKLLRRVPHLLTKAELLRLANNAHGYVGADLKALCNEAGLHALRRVLRKQPNLPDSKVAGMVKITLNDFLQGMNDIRPSAMREVAIDVPNVSWSDIGGLENIKLKLKQAVEWPLKHPKSFNRMGIQPPKGVLLYGPPGCSKTMIAKALANESGLNFLAIKGPELMNKYVGESERAVREIFRKARAVAPSIIFFDELDALAVERGSSSGAGNVADRVLAQLLTEMDGIEQLKNVTVLAATNRPDRIDKALMRPGRIDRIIYVPLPDAATRREILNLQFHSMPISNEVDLDELVLQTDTYSGAEIIAVCKEAALLALEENIKADCIMKRHFTQALSIVTPRIPESLRRFYEDYQEKSGLHTV
B5: SPATA20 (Spermatogenesis-associated protein 20) (protein, UniProt Q80YT5 1-790)
chain: MSHHSSPPPKHKGEHKGHGLPRGSERGSSSRDKDRSATTVSSSAPMPAGGKSSRTNCPPPAPPKTVNRLINEKSPYLLQHAYNPVDWYPWGQEAFDKAKKENKPIFLSVGYSTCHWCHMMEEESFQNEEIGRLLNENFICVMVDREERPDVDKVYMTFVQATSSGGGWPMNVWLTPGLQPFVGGTYFPPEDGLTRVGFRTVLMRICDQWKLNKNTLLENSQRVTTALLARSEISVGDRQIPASAATMNSRCFQQLDEGYDEEYGGFAEAPKFPTPVILNFLFSYWLSHRLTQDGSRAQQMALHTLKMMANGGIQDHVGQGFHRYSTDRQWHIPHFEKMLYDQAQLSVVYTQAFQISGDEFYADVAKGILQYVTRTLSHRSGGFYSAEDADSPPERGMKPQEGAYYVWTVKEVQQLLPEPVVGASEPLTSGQLLMKHYGLSEVGNINSSQDPNGELHGQNVLMVRYSLELTAARYGLEVEAVRALLNTGLEKLFQARKHRPKAHLDNKMLAAWNGLMVSGFAVTGAALGMEKLVAQATSGAKFLKRHMFDVSSGRLKRTCYAGTGGTVEQSNPPCWGFLEDYAFVVRGLLDLYEASQESSWLEWALRLQDTQDKLFWDPRGGGYFCSEAELGADLPLRLKDDQDGAEPSANSVSAHNLLRLHSFTGHKDWMDKCVCLLTAFSERMRRVPVALPEMVRTLSAQQQTLKQIVICGDPQAKDTKALLQCVHSIYVPNKVLILADGDPSSFLSRQLPFLSSLRRVEDRATVYIFENQACSMPITDPCELRKLLHQ
B6: TDRD1 (tudor domain protein) (protein, UniProt Q99MV1 1-1172)
chain: MMPRNNLEASTCKMAEPFNFEKKESKPPPQDPLRSPVAQHNHPTFRLKSPENGNTKNNFLLCEQNKQYLASQEDSSVVSSNPAVVNGEVGGSKGDRKPPPTGNPVSPLSLGNSSPPNQVKTKPSSNVTPEKSKKSHKLFENALSVNNPALFNSLGPPLRSTTCHRCGLFGSLRCSQCKQTYYCSTACQRRDWSSHSTICRPVQQSLNKLEDNKSPFETKAIEVKSEVDCPPGVTKEITAGAERVMFSDLRSLQLKKTMEIKGTVTEFKHPSNFYIQLYSSEVLENMNQLSTSLKETYANVVPEDGYLPVKGEVCVAKYTVDQTWNRAIVQAVDVLQRKAHVLYIDYGNEEMIPIDSVHPLSRGLDLFPPSAIKCCVSGVIPTAGEWSEGCVAAVKALLFEQFCSVKVMDILEEEVLTCAVDLVLQSSGKQLDHVLVEMGYGVKPGEQSSTEQSVDHSALEDVGRVTVESKIVTDRNALIPKVLTLNVGDEFCGVVAHIQTPEDFFCQQLQSGHKLAELQESLSEYCGHVIPRSDFYPTIGDVCCAQFSEDDQWYRASVLAYASEESVLVGYVDYGNFEILSLKRLCPIIPKLLDLPMQALNCVLAGVKPSLGIWTPEAVCVMKEMVQNRMVTVRVVGMLGTRALVELIDKSVAPHVSASKALIDSGFAIKEKDVADKGSSMHTASVPLAIEGPAEALEWTWVEFTVDETVDVVVCMMYSPGEFYCHFLKDDALEKLDDLNQSLADYCAQKPPNGFKAEIGRPCCAFFSGDGNWYRALVKEILPSGNVKVHFVDYGNVEEVTTDQLQAILPQFLLLPFQGMQCWLVDIQPPNKHWTKEATARFQACVVGLKLQARVVEITANGVGVELTDLSTPYPKIISDVLIREQLVLRCGSPQDSLMSRPANQHKQIDSHRVQASPSAEQWKTMELPVNKTIAANVLEIISPALFYAIPSEMSENQEKLCVLAAELLEHCNAQKGQPAYRPRTGDACCAKYTNDDFWYRAIVLETSESDVKVLYADYGNIETLPLSRVQPIPASHLELPFQIIRCSLEGPMELNGSCSQLVMELLRNAMLNQSVVLSVKAISKNVHAVSVEKCSENGMINIAENLVMCGLAENLTSKRKSASTKEIPHSRDCCCTELQKQIEKHEQILLFLLNNPTNQSKFTEMKKLLRS

What follows are molecules tested against PSMA8 (testis-specific proteasomal subunit α4s), endogenous (mouse (endogenous in testis)) (UniProt Q9CWH6) (assay: affinity purification with mass spectrometry; anti-PSMA8 antibodies R1 and R2 (detect PSMA7/8) bound to sepharose beads; 20 mg wild-type mouse testis extract in 50mM Tris HCl (pH8), 500mM NaCl, 1mM EDTA, 1% tritonX-100, o/n; buffer lacking ATP and glycerol; eluted in 100 mM glycine pH3).

Molecule	binding
RNF17 (from UniProt Q99MV7 1-1640)	binds
CDK1 (cyclin dependent kinase), endogenous (from UniProt P11440 1-297)	binds
TRIP12 (from UniProt G5E870 1-2025)	binds
USP9X (from UniProt P70398 1-2559)	binds
USP5 (from UniProt P56399 1-858)	binds
NEDD4 (from UniProt P46935 1-887)	binds
USP34 (from UniProt Q6ZQ93 1-3582)	binds
RAD18 (from UniProt Q9QXK2 1-509)	binds
TDRD6 (tudor domain protein) (from UniProt P61407 1-2134)	binds
CCT6b (from UniProt Q61390 1-531)	binds
B1	binds
B2	binds
B3	binds
B4	binds
B5	binds
B6	binds

These are yes or no findings as the source states them, for the method shown. In cells and extracts the contact can be indirect. These calls come from enrichment with a bait or labelling near it, and not all partners need be listed.
